Data as given in publication PMC3394778.
No constants are given. Whether binding was seen depends on the method and setting. Tags and fused reporters may be left off the sequences shown.

Amino acid sequences for entries named in this document (tags omitted).
UniProt P51668: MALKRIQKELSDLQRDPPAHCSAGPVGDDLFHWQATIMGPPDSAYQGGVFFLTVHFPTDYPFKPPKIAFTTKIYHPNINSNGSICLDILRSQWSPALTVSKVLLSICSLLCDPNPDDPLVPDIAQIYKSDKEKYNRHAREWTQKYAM

Target: GST-UbcH5a (human) (UniProt P51668)
Assay: pull-down; GST-UbcH5a coupled to Glutathione Sepharose 4B as bait, His-TdT deletion mutants as prey; binding buffer A: 50 mM Tris-HCl pH 7.4, 150 mM NaCl, 2.5 mM MgCl2, 1% TritonX-100, 10% glycerol, 1 mM DTT; immunoblot with anti-His; both purified

B1: His-TdT del 1 (1–262) (domain or fragment, UniProt P06526 1-262)
chain: MDPLCTASSGPRKKRPRQVGASMASPPHDIKFQNLVLFILEKKMGTTRRNFLMELARRKGFRVENELSDSVTHIVAENNSGSEVLEWLQVQNIRASSQLELLDVSWLIESMGAGKPVEITGKHQLVVRTDYSATPNPGFQKTPPLAVKKISQYACQRKTTLNNYNHIFTDAFEILAENSEFKENEVSYVTFMRAASVLKSLPFTIISMKDTEGIPCLGDKVKCIIEEIIEDGESSEVKAVLNDERYQSFKLFTSVFGVGLKT
- binding: no binding
